The values below come from article PMC5732799.

These are yes or no findings as the source states them, for the method shown. In cells and extracts the contact can be indirect. Some results given as binding are weak or reduced against the parent protein; the word gives no strength.

The target in assay [1] is T1, activating transcription factor-2 (ATF-2) (human (endogenous in A549 and PC9)) (UniProt P15336).
T1 sequence: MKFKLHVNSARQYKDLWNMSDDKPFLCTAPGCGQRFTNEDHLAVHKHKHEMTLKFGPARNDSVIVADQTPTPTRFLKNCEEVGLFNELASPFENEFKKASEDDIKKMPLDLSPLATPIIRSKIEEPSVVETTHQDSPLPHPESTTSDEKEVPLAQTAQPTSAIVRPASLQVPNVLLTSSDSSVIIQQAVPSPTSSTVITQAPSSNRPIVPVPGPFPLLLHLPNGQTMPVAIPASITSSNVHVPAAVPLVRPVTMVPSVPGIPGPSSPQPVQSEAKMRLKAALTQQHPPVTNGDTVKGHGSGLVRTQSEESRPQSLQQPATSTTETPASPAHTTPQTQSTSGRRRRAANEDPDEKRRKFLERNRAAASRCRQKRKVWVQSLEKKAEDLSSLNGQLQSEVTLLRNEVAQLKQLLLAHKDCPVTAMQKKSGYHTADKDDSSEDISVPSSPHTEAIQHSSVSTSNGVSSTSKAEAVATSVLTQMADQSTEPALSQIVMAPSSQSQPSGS
Put plainly: condition: only cells transfected with miR-216b mimics (50 pmol/ml), which lower the c-Jun protein level; co-IP; A549 and PC9 cells transfected with miR-216b mimics (50 pmol/ml) and treated with cisplatin (2 uM); RIPA lysate incubated with ATF2 antibody at 4 °C overnight, protein G agarose beads, western blot.

Assay [2] concerns the target T2, activating transcription factor-2 (ATF-2) (human (endogenous in A549 and PC9)), P15336.
T2 chain: T1 sequence
Description: co-IP; A549 and PC9 cells treated with cisplatin (2 uM); RIPA lysate incubated with ATF2 antibody at 4 °C overnight, protein G agarose beads, washed three times with RIPA buffer, western blot. The conditions noted are these: remark: other sources report otherwise. On the technique in general: In western blotting, separated proteins are transferred to a membrane and probed.

In the case of c-Jun (from UniProt P05412 1-331), the binding result in assay [1] was “no binding”.

B1: c-Jun, P05412 1-331 (protein)
chain: MTAKMETTFYDDALNASFLPSESGPYGYSNPKILKQSMTLNLADPVGSLKPHLRAKNSDLLTSPDVGLLKLASPELERLIIQSSNGHITTTPTPTQFLCPKNVTDEQEGFAEGFVRALAELHSQNTLPSVTSAAQPVNGAGMVAPAVASVAGGSGSGGFSASLHSEPPVYANLSNFNPGALSSGGGAPSYGAAGLAFPAQPQQQQQPPHHLPQQMPVQHPRLQALKEEPQTVPEMPGETPPLSPIDMESQERIKAERKRMRNRIAASKCRKRKLERIARLEEKVKTLKAQNSELASTANMLREQVAQLKQKVMNHVNSGCQLMLTQQLQTF
Take B1: the binding result in assay [2] was “binds”.
